Results on 39 molecules are retold here after PubChem BioAssay.

Some of the results follow. Further columns of the screen follow, without active or inactive calls. For part of these data: The list favours compounds with an active or inconclusive main result.

One test in a line: PubChem AID 1586. Conditions: yeast two-hybrid polyglutamine protein interaction, reporter readout; measured here: averaged growth delta OD.
As to `C=C[C@H]1CN2CC[C@H]1C[C@@H]2[C@H](O)c1ccnc2ccc(OC)cc12`, the signal change (36 h minus 0 h) was determined as 0.198.
`COC(=O)C1=C(C)NC(C)=C(C(=O)OCCN(C)Cc2ccccc2)C1c1cccc([N+](=O)[O-])c1` (configuration not stated): the signal change (36 h minus 0 h) is 0.211.
`CN(C)CCN(Cc1ccccc1)c1ccccn1` showed a signal change (36 h minus 0 h) of 0.234.
In turn, `O=C(CCBr)N1CCN(C(=O)CCBr)CC1` came in with a signal change (36 h minus 0 h) of 0.118.
Consider `C=CCc1ccccc1OCC(O)CNC(C)C` (configuration not stated), for which the signal change (36 h minus 0 h) came out at 0.122.
Still for that read-out and setting: next, `CCN(CC)CCOc1ccc2c(c1)C(=O)c1cc(OCCN(CC)CC)ccc1-2`: 0.179; `CC(=O)OCC(=O)[C@@]1(O)CCC2C3CCC4=CC(=O)CC[C@]4(C)C3[C@@H](O)C[C@@]21C` (some centres not stated): 0.0543.
In turn, `C[N+](C)(C)CC(O)CC(=O)O` (configuration not stated) displayed a signal change (36 h minus 0 h) of 0.105.
Regarding `CC1=NN(c2ccccc2)C(=O)C1`, the signal change (36 h minus 0 h) was determined as 0.305.
Turning to `CC(=O)O[C@]1(C(C)=O)CCC2C3C=C(Cl)C4=CC(=O)[C@@H]5C[C@@H]5[C@]4(C)C3CC[C@@]21C` (some centres not stated), the signal change (36 h minus 0 h) is 0.176.
As to `COc1ccc(-c2cc(=O)c3c(O)cc(O)cc3o2)cc1`, the signal change (36 h minus 0 h) was 0.05.
Consider `Clc1ccc2c(c1)C(N1CCNCC1)=Nc1ccccc1O2`, for which the signal change (36 h minus 0 h) amounted to 0.108.
For `CCCCOc1ccc(CC(=O)NO)cc1`, the signal change (36 h minus 0 h) amounted to 0.0563.
`CN1CCC[C@H]1c1cccnc1` displayed a signal change (36 h minus 0 h) of 0.0568.
Still for that read-out and setting: the same measure for `CC1=C(C(=O)O)N2C(=O)[C@@H](NC(=O)[C@H](N)C3=CCC=CC3)[C@H]2SC1`: 0.122.
Still for that read-out and setting: next, `NC(=O)c1ccc([N+](=O)[O-])cc1Cl`: 0.238; `NCCSSCCN`: 0.0756.
Regarding `CC1(C)S[C@@H]2[C@H](NC(=O)[C@H](NC(=O)N3CCNC3=O)c3ccccc3)C(=O)N2C1C(=O)O` (some centres not stated), the signal change (36 h minus 0 h) amounted to 0.184.
`CN1Cc2c(N)cccc2C(c2ccccc2)C1` (configuration not stated) yielded a signal change (36 h minus 0 h) of 0.26.
The molecule `C=CCSCC1Nc2cc(Cl)c(S(N)(=O)=O)cc2S(=O)(=O)N1` (configuration not stated) gave a signal change (36 h minus 0 h) of 0.0459.
`CC(C)[C@@H]1CC[C@@H](C)C[C@H]1O` displayed a signal change (36 h minus 0 h) of 0.0413.
On to `CN(C)CCC=C1c2ccccc2CCc2ccccc21`, for which the signal change (36 h minus 0 h) worked out at 0.274.
For the molecule `NCC[C@@H](O)C(=O)N[C@@H]1C[C@H](N)[C@@H](O[C@H]2O[C@H](CN)[C@@H](O)[C@H](O)[C@H]2O)[C@H](O)[C@H]1O[C@H]1O[C@H](CO)[C@@H](O)[C@H](N)C1O` (some centres not stated), the signal change (36 h minus 0 h) came out at 0.0678.
`CC(=O)NC(Cc1ccccc1)C(=O)O` (configuration not stated) returned a signal change (36 h minus 0 h) of 0.19.
The molecule `O=C(O)c1ccccc1OP(=O)(O)O` had a signal change (36 h minus 0 h) of 0.153.
In turn, `CCCC1O[C@@H]2CC3C4CCC5=CC(=O)C=CC5(C)C4[C@@H](O)CC3(C)[C@]2(C(=O)CO)O1` (some centres not stated) had a signal change (36 h minus 0 h) of 0.136.
Regarding `O=c1cc(-c2ccccc2)oc2cc(O)cc(O)c12`, the signal change (36 h minus 0 h) was determined as 0.193.
Same read-out and setting: next, `Oc1cccc(O)c1`: 0.167; `CNCCCN1c2ccccc2CCc2ccccc21`: 0.0611; `Clc1ccccc1C(c1ccccc1)(c1ccccc1)n1ccnc1`: 0.186.
For `OC(CCN1CCCCC1)(c1ccccc1)C1CCCCC1` (configuration not stated), the signal change (36 h minus 0 h) was found to be 0.184.
Molecule `CN1C2CCC1CC(OC(=O)C(CO)c1ccccc1)C2` (configuration not stated) returned a signal change (36 h minus 0 h) of 0.0806.
For `Nc1ccc(S(=O)(=O)Nc2ccccn2)cc1`, the signal change (36 h minus 0 h) was 0.198.
`Cc1cc(NC(=O)C2=C(O)c3ccccc3S(=O)(=O)N2C)no1`: the signal change (36 h minus 0 h) came to 0.433.
`Nc1ccc(N=Nc2ccccc2)c(N)n1` came in with a signal change (36 h minus 0 h) of 0.113.
For the molecule `CC(=O)OCC(=O)[C@@]1(O)CCC2C3CCC4=CC(=O)CC[C@]4(C)C3C(=O)C[C@@]21C` (some centres not stated), the signal change (36 h minus 0 h) turned out to be 0.113.
Molecule `CCCCCCCCNC(C)C(O)c1ccc(SC(C)C)cc1` (configuration not stated) came in with a signal change (36 h minus 0 h) of 0.159.
As to `CC(=O)OCC1=C(C(=O)O)N2C(=O)[C@@H](NC(=O)CSc3ccncc3)[C@H]2SC1`, the signal change (36 h minus 0 h) worked out at 0.0848.
Regarding `Cc1ccnc(NS(=O)(=O)c2ccc(N)cc2)n1`, the signal change (36 h minus 0 h) came out at 0.191.

The next test can be described thus: enhancers of SMN2 over SMN1 splicing, cell-based, SMN2/SMN1 luciferase reporters (AID 1598). Conditions: SMN2 vs SMN1 luciferase splicing reporter cells, at 10 µM; SMN1 luciferase ratio: measured here: SMN1 luciferase reporter average; SMN2 luciferase ratio: measured here: SMN2 luciferase reporter average, stronger effect = higher value.
On to `C=C[C@H]1CN2CC[C@H]1C[C@@H]2[C@H](O)c1ccnc2ccc(OC)cc12`, for which the SMN2 luciferase ratio came to 0.91 and the SMN1 luciferase ratio came to 0.89.
For the molecule `COC(=O)C1=C(C)NC(C)=C(C(=O)OCCN(C)Cc2ccccc2)C1c1cccc([N+](=O)[O-])c1` (configuration not stated), the SMN1 luciferase ratio was found to be 1 and the SMN2 luciferase ratio came out at 1.04.
Turning to `CN(C)CCN(Cc1ccccc1)c1ccccn1`, the SMN2 luciferase ratio stood at 0.91 and the SMN1 luciferase ratio was found to be 0.81.
Regarding `O=C(CCBr)N1CCN(C(=O)CCBr)CC1`, the SMN1 luciferase ratio is 0.87 and the SMN2 luciferase ratio was found to be 0.86.
Turning to `C=CCc1ccccc1OCC(O)CNC(C)C` (configuration not stated), the SMN1 luciferase ratio was 0.8 and the SMN2 luciferase ratio came out at 0.83.
As to `CCN(CC)CCOc1ccc2c(c1)C(=O)c1cc(OCCN(CC)CC)ccc1-2`, the SMN1 luciferase ratio was determined as 0.94 and the SMN2 luciferase ratio is 0.94.
On to `CC(=O)OCC(=O)[C@@]1(O)CCC2C3CCC4=CC(=O)CC[C@]4(C)C3[C@@H](O)C[C@@]21C` (some centres not stated), for which the SMN1 luciferase ratio turned out to be 0.86 and the SMN2 luciferase ratio was determined as 0.88.
Take `C[N+](C)(C)CC(O)CC(=O)O` (configuration not stated): the SMN1 luciferase ratio came out at 0.94 and the SMN2 luciferase ratio came to 0.76.
For `CC1=NN(c2ccccc2)C(=O)C1`, the SMN2 luciferase ratio was 1.02 and the SMN1 luciferase ratio is 0.8.
On the same counts, the results for `CC(=O)O[C@]1(C(C)=O)CCC2C3C=C(Cl)C4=CC(=O)[C@@H]5C[C@@H]5[C@]4(C)C3CC[C@@]21C` (some centres not stated) are 0.86 and 0.95.
As for `COc1ccc(-c2cc(=O)c3c(O)cc(O)cc3o2)cc1`, the SMN1 luciferase ratio was found to be 1.21 and the SMN2 luciferase ratio amounted to 1.08.
Regarding `Clc1ccc2c(c1)C(N1CCNCC1)=Nc1ccccc1O2`, the SMN2 luciferase ratio amounted to 0.68 and the SMN1 luciferase ratio came out at 0.75.
For the molecule `CCCCOc1ccc(CC(=O)NO)cc1`, the SMN2 luciferase ratio turned out to be 1.04 and the SMN1 luciferase ratio was 1.14.
As for `CN1CCC[C@H]1c1cccnc1`, the SMN1 luciferase ratio was determined as 1 and the SMN2 luciferase ratio came out at 1.06.
On to `CC1=C(C(=O)O)N2C(=O)[C@@H](NC(=O)[C@H](N)C3=CCC=CC3)[C@H]2SC1`, for which the SMN2 luciferase ratio was found to be 1.03 and the SMN1 luciferase ratio was determined as 0.86.
With `NC(=O)c1ccc([N+](=O)[O-])cc1Cl`, the SMN2 luciferase ratio turned out to be 0.94 and the SMN1 luciferase ratio worked out at 0.97.
With `NCCSSCCN`, the SMN2 luciferase ratio came to 0.8 and the SMN1 luciferase ratio came to 0.91.
Consider `CC1(C)S[C@@H]2[C@H](NC(=O)[C@H](NC(=O)N3CCNC3=O)c3ccccc3)C(=O)N2C1C(=O)O` (some centres not stated), for which the SMN2 luciferase ratio was 0.97 and the SMN1 luciferase ratio is 0.9.
Consider `CN1Cc2c(N)cccc2C(c2ccccc2)C1` (configuration not stated), for which the SMN1 luciferase ratio is 0.87 and the SMN2 luciferase ratio stood at 0.95.
For the molecule `C=CCSCC1Nc2cc(Cl)c(S(N)(=O)=O)cc2S(=O)(=O)N1` (configuration not stated), the SMN2 luciferase ratio came to 0.88 and the SMN1 luciferase ratio worked out at 0.98.
In the case of `CC(C)[C@@H]1CC[C@@H](C)C[C@H]1O`, the SMN1 luciferase ratio was 0.93 and the SMN2 luciferase ratio was 1.06.
On the same counts, the results for `CN(C)CCC=C1c2ccccc2CCc2ccccc21` are 0.92 and 0.9.
Regarding `NCC[C@@H](O)C(=O)N[C@@H]1C[C@H](N)[C@@H](O[C@H]2O[C@H](CN)[C@@H](O)[C@H](O)[C@H]2O)[C@H](O)[C@H]1O[C@H]1O[C@H](CO)[C@@H](O)[C@H](N)C1O` (some centres not stated), the SMN2 luciferase ratio is 1 and the SMN1 luciferase ratio was 0.97.
With `CC(=O)NC(Cc1ccccc1)C(=O)O` (configuration not stated), the SMN2 luciferase ratio stood at 0.93 and the SMN1 luciferase ratio was 0.87.
In the case of `O=C(O)c1ccccc1OP(=O)(O)O`, the SMN2 luciferase ratio came out at 0.93 and the SMN1 luciferase ratio stood at 0.9.
As for `CCCC1O[C@@H]2CC3C4CCC5=CC(=O)C=CC5(C)C4[C@@H](O)CC3(C)[C@]2(C(=O)CO)O1` (some centres not stated), the SMN2 luciferase ratio worked out at 0.82 and the SMN1 luciferase ratio came to 0.94.
`O=c1cc(-c2ccccc2)oc2cc(O)cc(O)c12`: the SMN2 luciferase ratio was 1.3 and the SMN1 luciferase ratio came out at 1.14.
Take `Oc1cccc(O)c1`: the SMN2 luciferase ratio is 0.9 and the SMN1 luciferase ratio was found to be 0.92.
`CNCCCN1c2ccccc2CCc2ccccc21`: the SMN1 luciferase ratio came to 0.94 and the SMN2 luciferase ratio came to 0.94.
As to `Clc1ccccc1C(c1ccccc1)(c1ccccc1)n1ccnc1`, the SMN1 luciferase ratio is 0.89 and the SMN2 luciferase ratio came to 0.86.
The like results for `OC(CCN1CCCCC1)(c1ccccc1)C1CCCCC1` (configuration not stated) were, in that order, 0.91 and 0.9.
Take `CN1C2CCC1CC(OC(=O)C(CO)c1ccccc1)C2` (configuration not stated): the SMN2 luciferase ratio came to 0.88 and the SMN1 luciferase ratio turned out to be 0.86.
For `Nc1ccc(S(=O)(=O)Nc2ccccn2)cc1`, the SMN1 luciferase ratio was determined as 0.86 and the SMN2 luciferase ratio was 0.88.
On the same counts, the results for `Cc1cc(NC(=O)C2=C(O)c3ccccc3S(=O)(=O)N2C)no1` are 0.94 and 0.89.
For `Nc1ccc(N=Nc2ccccc2)c(N)n1`, the SMN1 luciferase ratio is 1.03 and the SMN2 luciferase ratio amounted to 1.19.
On the same counts, the results for `CC(=O)OCC(=O)[C@@]1(O)CCC2C3CCC4=CC(=O)CC[C@]4(C)C3C(=O)C[C@@]21C` (some centres not stated) are 0.95 and 0.83.
`CCCCCCCCNC(C)C(O)c1ccc(SC(C)C)cc1` (configuration not stated): the SMN1 luciferase ratio was determined as 0.89 and the SMN2 luciferase ratio amounted to 0.9.
Consider `CC(=O)OCC1=C(C(=O)O)N2C(=O)[C@@H](NC(=O)CSc3ccncc3)[C@H]2SC1`, for which the SMN1 luciferase ratio stood at 0.85 and the SMN2 luciferase ratio amounted to 0.81.
As for `Cc1ccnc(NS(=O)(=O)c2ccc(N)cc2)n1`, the SMN2 luciferase ratio was 0.87 and the SMN1 luciferase ratio came to 0.9.
